According to patent publication US20110123534A1:
These are yes or no findings as the source states them, for the method shown. Binding seen in cells or lysates may run through a third protein. Some results given as binding are weak or reduced against the parent protein; the word gives no strength.

Amino acid sequences for entries named in this document (tags omitted). Residues count along the entry.
UniProt P60953, residues 1-188: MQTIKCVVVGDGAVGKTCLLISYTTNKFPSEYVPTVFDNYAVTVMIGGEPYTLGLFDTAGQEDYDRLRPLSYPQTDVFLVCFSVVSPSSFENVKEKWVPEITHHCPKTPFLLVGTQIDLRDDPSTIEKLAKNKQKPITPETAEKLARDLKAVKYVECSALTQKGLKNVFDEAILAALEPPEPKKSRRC
UniProt Q6ZNL6: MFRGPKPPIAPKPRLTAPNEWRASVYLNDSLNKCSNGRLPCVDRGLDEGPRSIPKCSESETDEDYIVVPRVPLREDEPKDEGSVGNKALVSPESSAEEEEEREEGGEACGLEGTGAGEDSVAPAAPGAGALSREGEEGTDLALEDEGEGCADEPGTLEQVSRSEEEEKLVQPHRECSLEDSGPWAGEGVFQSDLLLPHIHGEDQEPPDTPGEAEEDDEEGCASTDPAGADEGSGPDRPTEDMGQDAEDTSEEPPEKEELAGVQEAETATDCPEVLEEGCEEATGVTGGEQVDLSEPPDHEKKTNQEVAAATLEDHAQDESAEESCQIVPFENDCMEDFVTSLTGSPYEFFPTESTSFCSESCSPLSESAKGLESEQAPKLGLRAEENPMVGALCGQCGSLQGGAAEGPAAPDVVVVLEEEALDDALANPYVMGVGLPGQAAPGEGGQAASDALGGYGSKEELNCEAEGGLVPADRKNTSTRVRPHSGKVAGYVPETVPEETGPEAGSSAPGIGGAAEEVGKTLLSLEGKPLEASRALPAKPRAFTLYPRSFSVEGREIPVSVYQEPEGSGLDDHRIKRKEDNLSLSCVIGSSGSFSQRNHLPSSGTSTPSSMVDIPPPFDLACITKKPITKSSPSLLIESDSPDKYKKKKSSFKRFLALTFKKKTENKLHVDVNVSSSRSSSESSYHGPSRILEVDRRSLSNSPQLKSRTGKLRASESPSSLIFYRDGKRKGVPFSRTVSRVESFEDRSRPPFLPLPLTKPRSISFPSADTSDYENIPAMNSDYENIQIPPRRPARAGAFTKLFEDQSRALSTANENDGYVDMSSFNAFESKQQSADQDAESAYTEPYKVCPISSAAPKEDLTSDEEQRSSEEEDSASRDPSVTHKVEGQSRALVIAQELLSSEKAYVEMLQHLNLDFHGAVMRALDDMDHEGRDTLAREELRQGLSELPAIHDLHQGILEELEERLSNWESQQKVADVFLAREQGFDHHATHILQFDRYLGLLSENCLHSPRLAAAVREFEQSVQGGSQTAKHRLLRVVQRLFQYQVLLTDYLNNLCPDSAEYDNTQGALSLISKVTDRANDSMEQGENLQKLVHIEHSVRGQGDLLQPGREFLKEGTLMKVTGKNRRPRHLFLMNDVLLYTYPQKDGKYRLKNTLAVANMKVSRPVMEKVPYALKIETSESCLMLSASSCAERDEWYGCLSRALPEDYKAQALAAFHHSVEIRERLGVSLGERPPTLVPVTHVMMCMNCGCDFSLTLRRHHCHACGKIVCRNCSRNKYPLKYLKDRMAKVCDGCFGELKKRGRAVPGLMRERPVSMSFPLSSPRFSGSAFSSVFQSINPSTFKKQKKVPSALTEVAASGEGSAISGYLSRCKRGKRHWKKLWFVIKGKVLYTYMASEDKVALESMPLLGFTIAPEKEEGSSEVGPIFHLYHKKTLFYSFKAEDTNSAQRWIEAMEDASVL

Molecular target: cdc42 (endogenous in HUVEC lysate) (human) (UniProt P60953)
Assay: co-immunoprecipitation with anti-FGD5 antibody from lysates of FGD5 overexpressing HUVECs, western blot

Substance: FYVE, RhoGEF and PH domain-containing 5 (FGD5), human, overexpressed in HUVECs by adenovirus (Ad-FGD5) (from UniProt Q6ZNL6 1-1462)
- binding: binds
